Results on 27 molecules are retold here after the supplement of paper PMC4635364.

Where a name gives a salt, the structure may show the parent alone. The list shows a part of the results. Repeats in this data set agree poorly, so a single value says little.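 ReNCell VM, a human fetal ventral-midbrain neural progenitor line, was differentiated without mitogens. Blinded raters scored images stained for doublecortin (early neurons) or tyrosine hydroxylase (dopaminergic neurons) against untreated wells (0 = no change). Scores were averaged across repeats and both raters, and compounds averaging 2 or more were selected as hits for retesting.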

The subject of experiment [1] is ReNCell VM. The experiment can be described thus: neuronal differentiation score (DCX+ cell fraction vs untreated, manual image score) (score (-3 to 3)); higher = more neuronal differentiation. As to conditions: 2 uM, 2 weeks.
The test system of experiment [2] is ReNCell VM. The experiment can be described thus: dopaminergic neuron differentiation score (TH+ cell fraction vs untreated, manual image score) (score (0 to 3)); higher = more TH+ dopaminergic neuron differentiation. As to conditions: 2 uM, 4 weeks, BDNF 10 ng/ml + GDNF 10 ng/ml.

Turning to `N=C(N)NC(=N)Nc1ccccc1`, in the experiment on ReNCell VM [1] (library: Spectrum), the neuronal differentiation score was inactive: 0. Also, the “dopaminergic neuron differentiation score” value with ReNCell VM [2] (library: Spectrum) is inactive: 0.

As to `O=c1oc2c(O)c(O)cc3c(=O)oc4c(O)c(O)cc1c4c23`, the neuronal differentiation score in the experiment with ReNCell VM [1] (library: Spectrum) was inactive: 0. Further, the “dopaminergic neuron differentiation score” value in the experiment on ReNCell VM [2] (library: Spectrum) is inactive: 0.

For the molecule `COc1cc(OC)c2c(=O)c(-c3ccc4c(c3)OCO4)coc2c1`, in the experiment on ReNCell VM [1] (library: Spectrum), the neuronal differentiation score was inactive: 0. Further, the “dopaminergic neuron differentiation score” value in the experiment with ReNCell VM [2] (library: Spectrum) was inactive: 0.

Turning to `CCOC(=O)[C@@H](C)Oc1cccc2c(=O)n(CC(=O)Nc3ccc4c(c3)OCCO4)ccc12`, the neuronal differentiation score in the experiment on ReNCell VM [1] (library: Tocriscreen) is inactive: 0. For the same molecule, the “dopaminergic neuron differentiation score” value in the experiment on ReNCell VM [2] (library: Tocriscreen) is inactive: 0.

Turning to `N=C(N)SCCc1ccc(OCc2ccc([N+](=O)[O-])cc2)cc1` [KB-R7943 mesylate], the neuronal differentiation score in the experiment with ReNCell VM [1] (library: Tocriscreen) was inactive: 0. For the same molecule, in the experiment on ReNCell VM [2] (library: Tocriscreen), the “dopaminergic neuron differentiation score” value is inactive: 0.

In the case of `COc1cccc2c1C(=O)c1c(O)c3c(c(O)c1C2=O)C[C@@](O)(C(=O)CO)C[C@@H]3O[C@H]1C[C@H](N)[C@H](O)[C@H](C)O1`, the neuronal differentiation score with ReNCell VM [1] (library: Spectrum) is inactive: 0. The “dopaminergic neuron differentiation score” value with ReNCell VM [2] (library: Spectrum) is inactive: 0.

Take `CNC(=O)c1cc2c(cn1)[nH]c1ccccc12` [N-Methyl-beta-carboline-3-carboxamide]: the neuronal differentiation score in the experiment on ReNCell VM [1] (library: LOPAC) is inactive: 0. Further, the “dopaminergic neuron differentiation score” value in the experiment with ReNCell VM [2] (library: LOPAC) was inactive: 0.

As for `CC(C[N+](C)(C)C)OC(N)=O` (centres undefined), the neuronal differentiation score in the experiment with ReNCell VM [1] (library: Spectrum) was inactive: 0. In addition, the “dopaminergic neuron differentiation score” value with ReNCell VM [2] (library: Spectrum) was inactive: 0.

Regarding `O=C1C(CC[S+]([O-])c2ccccc2)C(=O)N(c2ccccc2)N1c1ccccc1` (centres undefined) [Sulfinpyrazone], the neuronal differentiation score with ReNCell VM [1] (library: Prestwick) was inactive: 0. Further, in the experiment on ReNCell VM [2] (library: Prestwick), the “dopaminergic neuron differentiation score” value is inactive: 0.

Consider `CC(C)NCC(O)COc1ccccc1-n1cccc1` (centres undefined) [Isamoltane hemifumarate], for which, in the experiment with ReNCell VM [1] (library: Tocriscreen), the neuronal differentiation score was inactive: 0. Besides, the “dopaminergic neuron differentiation score” value in the experiment on ReNCell VM [2] (library: Tocriscreen) was inactive: 0.

For `CC(=O)O[C@@H]1CC2C(C)(CC[C@H](O)C2(C)C)C2CC[C@]3(C)C(=CC(=O)O[C@H]3c3ccoc3)C21C` (stereo partly drawn) [3beta-HYDROXYDEOXODIHYDRODEOXYGEDUNIN], in the experiment with ReNCell VM [1] (library: Spectrum), the neuronal differentiation score is inactive: -1. In the experiment with ReNCell VM [2] (library: Spectrum), the “dopaminergic neuron differentiation score” value is inactive: 0.

Turning to `CN1[C@@H]2CC[C@H]1C[C@@H](OC(=O)c1c[nH]c3ccccc13)C2` [Tropisetron hydrochloride], in the experiment on ReNCell VM [1] (library: Tocriscreen), the neuronal differentiation score was inactive: 0. In addition, the “dopaminergic neuron differentiation score” value in the experiment on ReNCell VM [2] (library: Tocriscreen) was inactive: 0.

For `O=C(NCC(O)CO)c1c(I)c(C(=O)NCC(O)CO)c(I)c(N(CCO)C(=O)CO)c1I` (centres undefined) [Ioversol], the neuronal differentiation score with ReNCell VM [1] (library: Prestwick) is inactive: 0. In addition, the “dopaminergic neuron differentiation score” value in the experiment on ReNCell VM [2] (library: Prestwick) was inactive: 0.

Regarding `CN(C)CC/C=C1/c2ccccc2COc2ccc(CC(=O)O)cc21` [Olopatadine hydrochloride], the neuronal differentiation score in the experiment on ReNCell VM [1] (library: Prestwick) was inactive: 0. The “dopaminergic neuron differentiation score” value with ReNCell VM [2] (library: Prestwick) is inactive: 0.

For `CC1=C(C)C(=O)C(CCCCC#CCCCC#CCO)=C(C)C1=O`, the neuronal differentiation score with ReNCell VM [1] (library: LOPAC) is inactive: 0. Also, in the experiment on ReNCell VM [2] (library: LOPAC), the “dopaminergic neuron differentiation score” value is inactive: 0.

On to `Nn1nnc2ccccc21` [1-Aminobenzotriazole], for which the neuronal differentiation score with ReNCell VM [1] (library: LOPAC) is inactive: 0. The “dopaminergic neuron differentiation score” value in the experiment with ReNCell VM [2] (library: LOPAC) was inactive: 0.

For the molecule `C[C@]12CCC(=O)C=C1CC[C@@H]1[C@@H]2[C@@H](O)C[C@@]2(C)[C@H]1CC[C@]2(O)C(=O)COC(=O)CCC(=O)O`, in the experiment on ReNCell VM [1] (library: Spectrum), the neuronal differentiation score was inactive: 0. Also, the “dopaminergic neuron differentiation score” value with ReNCell VM [2] (library: Spectrum) was inactive: 0.

As to `CC[C@]12CCCN3CCc4c(n(c5ccccc45)[C@@](O)(C(=O)OC)C1)[C@@H]32`, the neuronal differentiation score in the experiment on ReNCell VM [1] (library: Spectrum) was inactive: 0. In addition, in the experiment with ReNCell VM [2] (library: Spectrum), the “dopaminergic neuron differentiation score” value was inactive: 0.

With `O=C(Nc1ccccc1)C12CC1C(=NO)c1ccccc1O2` (centres undefined), the neuronal differentiation score in the experiment with ReNCell VM [1] (library: Tocriscreen) is inactive: 0. Also, in the experiment with ReNCell VM [2] (library: Tocriscreen), the “dopaminergic neuron differentiation score” value was inactive: 0.

As for `NC1(C(=O)O)CCCCC1` [1-Amino-1-cyclohexanecarboxylic acid hydrochloride], in the experiment with ReNCell VM [1] (library: LOPAC), the neuronal differentiation score was inactive: 0. For the same molecule, the “dopaminergic neuron differentiation score” value in the experiment with ReNCell VM [2] (library: LOPAC) is inactive: 0.

For the molecule `Cc1cnc(C(=O)NCCc2ccc(S(=O)(=O)NC(=O)NC3CCCCC3)cc2)cn1`, the neuronal differentiation score in the experiment with ReNCell VM [1] (library: Spectrum) was inactive: 0. Also, in the experiment with ReNCell VM [2] (library: Spectrum), the “dopaminergic neuron differentiation score” value was inactive: 0.

Consider `Cn1nnnc1SCC1=C(C(=O)O)N2C(=O)[C@@H](NC(=O)[C@H](O)c3ccccc3)[C@H]2SC1`, for which, in the experiment on ReNCell VM [1] (library: Spectrum), the neuronal differentiation score is inactive: 1. Further, in the experiment with ReNCell VM [2] (library: Spectrum), the “dopaminergic neuron differentiation score” value was inactive: 0.

In the case of `CN1[C@@H](CC(=O)c2ccccc2)CCC[C@H]1C[C@H](O)c1ccccc1` [alpha-Lobeline hydrochloride], the neuronal differentiation score in the experiment with ReNCell VM [1] (library: LOPAC) was inactive: 0. The “dopaminergic neuron differentiation score” value with ReNCell VM [2] (library: LOPAC) was inactive: 0.

For the molecule `CN1C2CCCC1CC(NC(=O)c1nn(C)c3ccccc13)C2` (centres undefined), the neuronal differentiation score with ReNCell VM [1] (library: Spectrum) was inactive: 0. The “dopaminergic neuron differentiation score” value in the experiment on ReNCell VM [2] (library: Spectrum) is inactive: 0.

Consider `CN[C@@H]1[C@H](O[C@H]2[C@H](O[C@H]3[C@H](O)[C@@H](O)[C@H](NC(=N)N)[C@@H](O)[C@@H]3NC(=N)N)O[C@@H](C)[C@]2(O)CO)O[C@@H](CO)[C@H](O)[C@H]1O`, for which the neuronal differentiation score with ReNCell VM [1] (library: Spectrum) was inactive: 0. The “dopaminergic neuron differentiation score” value in the experiment on ReNCell VM [2] (library: Spectrum) is inactive: 0.

As to `O=C1N(c2ccccc2)c2ccccc2C1(Cc1ccncc1)Cc1ccncc1` [Linopirdine dihydrochloride], the neuronal differentiation score in the experiment with ReNCell VM [1] (library: Tocriscreen) was inactive: 0. Moreover, the “dopaminergic neuron differentiation score” value in the experiment with ReNCell VM [2] (library: Tocriscreen) is inactive: 0.

With `CN(C)/N=N/c1[nH]cnc1C(N)=O`, in the experiment with ReNCell VM [1] (library: Spectrum), the neuronal differentiation score is inactive: 0. Besides, in the experiment on ReNCell VM [2] (library: Spectrum), the “dopaminergic neuron differentiation score” value was inactive: 0.
